Four molecules from patent EP4480961A1 can be followed below.

No constants are given. Whether binding was seen depends on the method and setting. Some results given as binding are weak or reduced against the parent protein; the word gives no strength.

For assay [1], the target named is T1, wild-type E. coli OmpF embedded in the membrane of E. coli MDS42 cells (Escherichia coli) (UniProt P02931).
T1 sequence: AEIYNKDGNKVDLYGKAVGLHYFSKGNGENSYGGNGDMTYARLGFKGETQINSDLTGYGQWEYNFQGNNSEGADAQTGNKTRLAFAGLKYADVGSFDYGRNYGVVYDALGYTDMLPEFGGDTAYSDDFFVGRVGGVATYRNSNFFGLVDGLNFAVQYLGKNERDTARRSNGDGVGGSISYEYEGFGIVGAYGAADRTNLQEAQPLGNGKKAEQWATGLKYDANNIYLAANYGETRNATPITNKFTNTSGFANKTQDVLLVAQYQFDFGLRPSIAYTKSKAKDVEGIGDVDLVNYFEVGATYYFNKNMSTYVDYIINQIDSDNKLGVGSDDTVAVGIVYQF
In words: specificity assay by flow cytometry.

The target of assay [2] is T1, wild-type E. coli OmpF embedded in the membrane of E. coli MDS42 cells (Escherichia coli). In words: flow cytometry on E. coli expressing wtOmpF, PBS.

B1: L2 engineered rcSso7d binder (designed binder)
chain: ATVKFTYQGEEKQVDISKIKYVIRFGQKIMFKYDEGGGAHGSGMVSEKDAPKELLQMLEKQ
In the case of B1, the binding result in assay [1] is “binds”.

B2: DBP1-L1 chimeric protein (designed binder)
chain: MADLPQKVSNLSINNKENGGGGGKSSYVPPHLRSRGKPSFERRSPKQKDKVTGGDFFRRAGRQTGNNGGFFGFSKERNGGTSANYNRRGSSNYKSSGNRWVNGKHIPGPKNAKLQKAELFGVHDDPDYHSSGIKFDNYDNIPVDASGKDVPEPILGGRTRGGGGFFNSRNNGSRDYRKHGGNGSFGSTRPRNTGTSNWGSIGGGFRNDNEKNGYGNSNASWWGSATVKFTYQGEEKQVDISKIKMVIRMGQMILFTYDEGGGAMGRGIVSEKDAPKELLQMLEKQ
As to B2, the binding entry in assay [2] is “binds”.

B3: DBP1-L2 chimeric protein (designed binder)
chain: MADLPQKVSNLSINNKENGGGGGKSSYVPPHLRSRGKPSFERRSPKQKDKVTGGDFFRRAGRQTGNNGGFFGFSKERNGGTSANYNRRGSSNYKSSGNRWVNGKHIPGPKNAKLQKAELFGVHDDPDYHSSGIKFDNYDNIPVDASGKDVPEPILGGRTRGGGGFFNSRNNGSRDYRKHGGNGSFGSTRPRNTGTSNWGSIGGGFRNDNEKNGYGNSNASWWGSATVKFTYQGEEKQVDISKIKYVIRFGQKIMFKYDEGGGAHGSGMVSEKDAPKELLQMLEKQ
As for B3, the binding result in assay [2] is listed as “binds”.

B4: L1 engineered rcSso7d binder (designed binder)
chain: ATVKFTYQGEEKQVDISKIKMVIRMGQMILFTYDEGGGAMGRGIVSEKDAPKELLQMLEKQ
Take B4: the binding entry in assay [1] was “binds”.
